Where a chain is given by its changes, count along the chain named. These are yes or no findings as the source states them, for the method shown. Some entries that bind do so weakly or less than the wild type.
Key:
[1] = molecular target: Full length cyno TfR on 293 cells (cynomolgus monkey); assay: FACS, cyTfR-transfected 293 cells, hybridoma supernatant, 1 uM holo-Tf present
[2] = molecular target: Cyno TfR extracellular domain (construct analogous to the human His-tagged ecd) (cynomolgus monkey); assay: ELISA on cyno TfR
[3] = molecular target: Full length human TfR on cells (human) (UniProt P02786); assay: FACS, huTfR-transfected 293 cells, hybridoma supernatant, 1 uM holo-Tf present
[4] = molecular target: Full length cyno TfR on 293 cells (cynomolgus monkey); assay: FACS, transfected 293 cells, 1 uM human holo-Tf present
[5] = molecular target: Full length human TfR on cells (human) (UniProt P02786); assay: as above
[6] = molecular target: Human TfR extracellular domain containing an N-terminal His tag (human) (UniProt P02786); assay: ELISA on huTfR

Measured: binding

B1: 10D11 (mouse hybridoma clone) (antibody, V domains shown)
VH: QVQLQQSGPELVRPGVAVKISCKGSGYKFIDYGMHWVKQSHTKSLQWIGVISPYSGKTNYSQKFKGKATMTVDKSSSTAYMELARLTSEDSAIYYCARGLSGNFVMDFWGQGTSVTVSS
VL: DIVLTQSPASLAVSLGQRATISCRASESVDSYGPSFMHWYQQKPGQPPKLLIYRASNLESGIPARFSGSGSRTDFTLTINPVEADDVATYYCQHSNEDPPTFGGGTRLEIK
binds: all assays above

B2: 7B10 (mouse hybridoma clone) (antibody, V domains shown)
VH: QVQLQQSGPELVRPGVSVKISCKGSGYTFTDYAMHWVKQSHAKSLEWIGGISTYFGRTNYNQKFKGRATMTVDKSSSTAYMELARLTSEDSALYYCARGLSGNYVMDYWGQGTSVTVSS
VL: B1 VL with S31D, P34N, H94Q, D98A, R107K, K111R
binds: all assays above

B3: 7G7 (mouse hybridoma clone) (antibody, V domains shown)
VH: QVQLQQPGSELVRPGASVKLSCKASGYTFTSYWMHWVKQRHGQGLEWIGNIYPGSGSTKYDERFKSKGTLTVDTSSSTAYMHLSSLTSEDSAVYYCTRGGYDSRAWFAYWGQGTLVTVSA
VL: DIVLTQSPASLAVSLGQRATISCRARQSVSTSSYSFMHWYRQKAGQPPKLLIKYASIQESGVPARFSGSGSGTDFTLNILPVEEEDTATYYCQHTWEIPFTFGSGTKLEIK
binds: [1] | [2] | [4]

B4: 4C2 (mouse hybridoma clone) (antibody, V domains shown)
VH: B3 VH with R63K, Y109H
VL: B3 VL with R41Q, A44P, K107N
binds: [1] | [2] | [4]

B5: 1B12 (mouse hybridoma clone) (antibody, V domains shown)
VH: EVKLVESGGGLVQPGGFLKLSCATSGFTFSDYYMYWVRQTPEKRLEWVASISNGGDNTYYPDTVKGRFTISRDNAKNTLYLQMSRLKSEDTAMYYCARQGALYDGYYRGAMDYWGQGTSVTVSS
VL: QIVLTQSPAIMSASLGGRVTMTCTTSSSVPSSYFHWYQQKPGSSPKLWIYSTSNLASGVPARFSGSGSGTSYSLTISSMEAEDAATYYCHQYHRSPFTFGSGTKLEIK
binds: [1] | [2] | [4]

B6: 13D4 (mouse hybridoma clone) (antibody, V domains shown)
VH: QVQLQQSGAELMKPGASVKISCKAAGYTFSNYWIEWVKQRPGHGLEWIGEILPGSGSTKYNEKFKGKATFTADTSSNTAYMQLSSLTSEDSAVYYCARRGGYGYDGEFAYWGQGTLVTVSA
VL: DIQMTQTTSSLSASLGDRVTINCRAGQDITNYLNWFQQKPDGTVKLLIYYTSRLHSGVPSRFSGSGSGTDYSLTITNLEQEDIATYFCQQANTLPYTFGGGTKLEIK
binds: [1] | [2] | [4]

B7: 16F6 (mouse hybridoma clone) (antibody, V domains shown)
VH: DVQLQESGPGLVKPSQSLSLTCTVTGNSITSEYAWNWIRQFPGNKLEWMGYISYSGTTSYNPSLKSRISITRDTSKNQLFLQLNSVTTEDTATYFCARYGYGNPATRYFDVWGAGTTVTVSS
VL: DVQITQSPSYLTASPGETITINCRASKSISKYLAWYQEKPGKTNKLLIYSGSTLQSGIPSRFSGSGSGTDFTLTISNLEPEDFAMYYCQQHNEYPWTFGGGTKLEIK
binds: [1] | [2] | [4]

B8: 16G5 (mouse hybridoma clone) (antibody, V domains shown)
VH: QVQLQQPGAELVRPGAAVKLSCKASGYTFTSYWMHWVKQRPGQGLEWIGEINPTNGRTNYNENFKSKATLTVDKSSSTAYMQLSSLTSEDSAVYYCARGTRAYHFWGQGTSVTVSS
VL: DIQLTQTPASLSVSVGETVTITCRASENIYSNLAWYQQKQGKSPQLLVYAATDLADGVPSRFRGSGSGTQYSLKINSLQSEDFGSYYCQHFWGTPLTFGAGTKLELI
binds: [1] | [2] | [4]

B9: 7A4 (mouse hybridoma clone) (antibody, V domains shown)
VH: B2 VH
VL: B1 VL with S31D, P34N, H94Q, D98A, R107K, K111R
binds: all assays above

B10: 8A2 (mouse hybridoma clone) (antibody, V domains shown)
VH: B2 VH with A33G, G50V, T53P, F55S, K63N, R67K, M81L, L93I, M106V
VL: B1 VL with P34N, H94Q, D98G, R107K
binds: [1] | [2] | [4]

B11: 7A4 HC/8A2 LC (antibody, V domains shown)
VH: B2 VH
VL: B1 VL with P34N, H94Q, D98G, R107K
binds: [2]

B12: 15D2 (mouse hybridoma clone) (antibody, V domains shown)
VH: B2 VH with F29V, G50V, T53F, F55S, R57K, K65M, R67K, L93I
VL: B1 VL with P34N, H94Q, D98G, R107K
binds: [1] | [2] | [4]

From US20200123267A1 (Genentech, published 2020)
